Results published in ChEMBL document CHEMBL4270539, “Fibrogenic Disorders in Human Diseases: From Inflammation to Organ Dysfunction” (J Med Chem, 2018).

Molecular target: T1, Tyrosine-protein kinase JAK3 (Homo sapiens, UniProt P52333)
T1 sequence (P52333 whole entry): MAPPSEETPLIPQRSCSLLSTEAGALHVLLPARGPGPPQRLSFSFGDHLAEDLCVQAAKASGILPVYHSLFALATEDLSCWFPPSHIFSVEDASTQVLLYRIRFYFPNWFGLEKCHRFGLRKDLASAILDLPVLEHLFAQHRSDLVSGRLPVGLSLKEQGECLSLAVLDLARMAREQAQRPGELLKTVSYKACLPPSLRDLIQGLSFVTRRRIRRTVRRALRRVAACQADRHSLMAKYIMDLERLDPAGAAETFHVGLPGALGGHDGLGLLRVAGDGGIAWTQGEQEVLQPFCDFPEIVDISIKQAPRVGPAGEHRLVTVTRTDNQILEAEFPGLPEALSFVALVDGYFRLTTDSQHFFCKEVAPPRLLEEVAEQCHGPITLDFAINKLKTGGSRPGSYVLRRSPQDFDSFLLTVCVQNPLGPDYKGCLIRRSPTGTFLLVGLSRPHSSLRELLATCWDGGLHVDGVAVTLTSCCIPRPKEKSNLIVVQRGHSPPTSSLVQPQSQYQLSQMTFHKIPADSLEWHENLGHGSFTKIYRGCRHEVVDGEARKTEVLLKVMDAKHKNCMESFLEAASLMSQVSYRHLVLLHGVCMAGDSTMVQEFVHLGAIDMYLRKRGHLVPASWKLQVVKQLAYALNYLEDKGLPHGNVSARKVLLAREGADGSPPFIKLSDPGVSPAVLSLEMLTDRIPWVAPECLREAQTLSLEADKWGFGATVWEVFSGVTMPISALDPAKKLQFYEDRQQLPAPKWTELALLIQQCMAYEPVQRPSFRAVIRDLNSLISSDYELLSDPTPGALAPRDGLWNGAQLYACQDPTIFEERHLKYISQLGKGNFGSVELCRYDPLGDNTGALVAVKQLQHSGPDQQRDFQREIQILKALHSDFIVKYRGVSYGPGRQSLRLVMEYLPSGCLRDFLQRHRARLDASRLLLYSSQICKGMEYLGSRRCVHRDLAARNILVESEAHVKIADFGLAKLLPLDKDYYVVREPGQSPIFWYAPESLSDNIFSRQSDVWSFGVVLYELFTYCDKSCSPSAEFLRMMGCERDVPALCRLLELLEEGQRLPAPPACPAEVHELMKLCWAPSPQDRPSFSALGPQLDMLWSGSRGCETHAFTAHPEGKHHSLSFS

IC50: 1800 nM
Structure (SMILES): COc1cc2ncnc(Nc3ccc(O)c(Br)c3)c2cc1OC
